In the test the target is T1, Thp2-TAP (S. cerevisiae) (UniProt O13539).
T1 sequence: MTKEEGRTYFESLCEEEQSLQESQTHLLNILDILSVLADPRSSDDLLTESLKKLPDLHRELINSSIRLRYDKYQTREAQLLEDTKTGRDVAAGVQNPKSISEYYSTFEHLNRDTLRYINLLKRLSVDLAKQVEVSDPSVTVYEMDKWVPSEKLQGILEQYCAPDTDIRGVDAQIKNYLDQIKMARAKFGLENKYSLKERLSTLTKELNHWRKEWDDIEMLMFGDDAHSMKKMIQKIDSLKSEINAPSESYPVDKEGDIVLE
The test is described as follows: co-IP.

Chains of the proteins cited; added tags and fusions are not shown. Lines headed by an entry give the natural chain unless they say otherwise; changes in a name come on top.
UniProt P17629: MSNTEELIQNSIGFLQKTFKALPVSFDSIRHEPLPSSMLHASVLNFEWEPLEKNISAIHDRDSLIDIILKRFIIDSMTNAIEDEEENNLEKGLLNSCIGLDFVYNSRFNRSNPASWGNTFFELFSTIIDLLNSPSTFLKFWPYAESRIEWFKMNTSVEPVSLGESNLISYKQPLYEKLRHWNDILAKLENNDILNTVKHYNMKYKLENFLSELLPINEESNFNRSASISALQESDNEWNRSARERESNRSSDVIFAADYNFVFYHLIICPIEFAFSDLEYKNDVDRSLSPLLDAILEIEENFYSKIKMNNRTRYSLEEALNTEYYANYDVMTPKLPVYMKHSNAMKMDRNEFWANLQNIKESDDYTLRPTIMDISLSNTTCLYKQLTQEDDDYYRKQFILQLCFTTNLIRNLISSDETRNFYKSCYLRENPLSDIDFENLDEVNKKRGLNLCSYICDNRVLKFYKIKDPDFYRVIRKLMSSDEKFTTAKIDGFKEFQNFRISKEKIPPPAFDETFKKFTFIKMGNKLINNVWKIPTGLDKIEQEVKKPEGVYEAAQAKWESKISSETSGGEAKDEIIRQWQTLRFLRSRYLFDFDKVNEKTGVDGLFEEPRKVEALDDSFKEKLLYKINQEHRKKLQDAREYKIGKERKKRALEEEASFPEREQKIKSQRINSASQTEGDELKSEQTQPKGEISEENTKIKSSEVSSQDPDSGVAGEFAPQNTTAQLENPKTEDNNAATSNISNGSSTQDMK
UniProt P53851: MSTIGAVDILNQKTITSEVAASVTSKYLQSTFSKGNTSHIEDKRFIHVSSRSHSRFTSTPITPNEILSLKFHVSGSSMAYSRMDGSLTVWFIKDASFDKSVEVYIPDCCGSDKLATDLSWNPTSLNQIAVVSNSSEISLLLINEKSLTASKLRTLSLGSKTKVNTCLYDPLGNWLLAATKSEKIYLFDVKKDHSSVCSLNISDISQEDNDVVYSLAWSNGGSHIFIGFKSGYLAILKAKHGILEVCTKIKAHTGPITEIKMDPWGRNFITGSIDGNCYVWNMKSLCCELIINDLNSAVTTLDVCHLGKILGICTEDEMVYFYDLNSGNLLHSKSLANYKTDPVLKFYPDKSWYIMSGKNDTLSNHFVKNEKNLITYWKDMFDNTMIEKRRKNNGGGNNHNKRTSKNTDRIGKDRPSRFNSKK

The values below come from publication doi:10.1101/2024.12.06.627129.

No constants are given. Whether binding was seen depends on the method and setting. Binding seen in cells or lysates may run through a third protein. Binding calls can cover weak binding; strength is not graded here.

Take Hpr1 (from UniProt P17629): the binding result is listed as “binds”.

Take Tex1-HA (from UniProt P53851): the binding entry is listed as “binds”.
